# Test results: PubChem BioAssay AID1347156 (National Center for Advancing Translational Sciences (NCATS), 2019)
# The inconclusive results got no clear call from the source; some entries with a clear call stand among them for comparison. A potency beside an inconclusive call is a rough fit, not a confirmed value. Calls of active or inactive are those of the source. Calls follow the shape of the dose curve; as a rule, active = well fitted cell-killing curve with a large enough effect; inconclusive = small, poorly fitted or top-dose-only effect; inactive = flat fitted curve, though single readings scatter.
# Assay: DAPI mCherry counterscreen qHTS for Zika virus inhibitors; also: nearly all actives have a fitted effect of over 55% in size
# Settings: Vero cells, DAPI nuclear count cytotoxicity, imaging 48-72 h, infected with Zika reporter virus, MOI 1; activity change, negative = cell loss: at 32.6 µM (top of the series) unless noted
# From the text: Assay Submitters (PI): Avindra Nath, Ph.D., National Institute of Neurological Disorders and Stroke (NINDS), Bethesda, MD Radhakrishnan Padmanabhan, Ph.D., Georgetown University (GU), Washington D.C. Zika Virus causes congenital defects, including microcephaly and is associated with Guillain-Barre syndrome, eningoencephalitis and myelitis in infected adult. […] Using a target-based approach, we hope to establish a screening paradigm to uncover novel, cell-active NS2B-NS3 protease (Zika Virus) specific inhibitors from NCATS' collection of small molecules using qHTS. […] Four assay panel was created to identify potential Zika Virus inhibitors. Namely, (1) GU unlinked NS2B-NS3 AMC tagged protease qHTS, (2) GU unlinked NS2B-NS3 Rhodamine tagged protease qHTS, (3) NINDS linked NS2B-NS3 AMC tagged protease qHTS, (4) NINDS linked NS2B-NS3 Rhodamine tagged protease qHTS. Active compounds were re-acquired and re-screened to confirm inhibition. Inhibitors were further screened against various confirmatory and counterscreens in dose response format. […] A DAPI (mCherry counterscreen) which determine Vero cell cytotoxicity was used to exclude false positive compounds. […] Early Translation Branch (ETB) National Center for Advancing Translational Sciences (NCATS), Rockville, MD National Institute of Health (NIH), Bethesda, Maryland
# 384 well ZIKV-mCherry & mCherry DAPI counterscreen: We have developed a new orthogonal imaging assay in 384-well plate format, which uses recombinant virus ZIKV-mCherry in Vero cells. Briefly, 30 microL of Vero cells derived from a green monkey cell line, were dispensed by Multidrop Dispenser into a clear solid bottom black 384 well plate (ultracarrier, Perkin Elmer LifeSciences) at a concentration of 5,000 cells per well. The plate was incubated overnight in a CO2 incubator at 37 degrees C. Compounds were delivered as a 126 nL DMSO solution by Kalypsys pintool transfer. Following compound transfer, 10 microL of ZIKV-mCherry was added at an MOI of 1 and incubated in a CO2 incubator for 48-72 hrs at 37 degrees C. After sufficient incubation of infected cells in test plates, 8 microL of 32% PFA was dispensed into assay plates to fix cells and incubated for 20 min at room temperature. Plates were washed 3 times with PBS using BioTek EL406 microplate washer/dispenser. After washing, 30 microL of PBS with 0.01% TX-100 containing Hoechst dye was dispensed into the each well of the plates for nuclear staining. 384-well plates were imaged on an automated, widefield high content imager (INCell 2200, GE Healthcare) using a 10x/0.45 NA lens and standard DAPI (nuclear stain) and mCherry (cy5) excitation and emission filters. The TIFFs were quantitated using the canned Multi Target Analysis protocol (GE Investigator Workstation software v3.7.2). Briefly, nuclei from the DAPI channel were identified using top hat segmentation and a sensitivity setting of 96 and minimum size area of 35 microm2. A recombinant Zika viral infection was monitored in the Cy5 channel (cells) using a 2 microm collar dilation from the nuclear bitmap. mCherry objects with an average nuclear RFU intensity above 450 (3 stdev above mean negative control wells) were considered "mcherry positive" and data was analyzed by percent infection rate.
# % is scaled to controls: 0 for no effect and ±100 for the full control effect; potency is read from the fitted curve at half-maximal effect.
Structure (SMILES),Potency,"activity change, negative = cell loss"
O=c1[nH]c(=S)[nH]c(-c2ccccc2)c1Cc1c(O)ccc2ccccc12,"inconclusive: 28.2 µM [cytotoxic, partial curve, poor fit]",
O=C(O)Cc1cc(I)c(Oc2ccc(O)c(I)c2)c(I)c1,"inconclusive: 35.5 µM [cytotoxic, partial curve]",
CC#C[C@@H](CC(=O)O)c1ccc(OCc2ccc(CN3CCC4(C=Cc5ccccc54)CC3)s2)cc1,"inconclusive: 31.6 µM [cytotoxic, partial curve]",
Cc1ccc(-c2nnc(Nc3ccccc3)c3ccccc23)cc1S(=O)(=O)NCc1nc2ccccc2[nH]1,"inconclusive: 14.1 µM [cytotoxic, full curve, poor fit]",
CN(C)[C@@H]1C(=O)C(C(N)=O)=C(O)[C@@]2(O)C(=O)C3=C(O)c4c(O)cccc4C[C@H]3C[C@@H]12,,inactive: -13.2%
CC1(C)C(\C=C/C=C\C=C/C=C2/N(CCCCS(=O)(=O)O)c3ccc4ccccc4c3C2(C)C)=[N+](CCCCS(=O)(=O)[O-])c2ccc3ccccc3c21,"inconclusive: 11.2 µM [cytotoxic, full curve, poor fit]",
O=S(=O)(Nc1ccc(Cl)cc1)c1ccc(NS(=O)(=O)c2ccc3c(c2)OCCO3)cc1,active: 31.6 µM,
Cc1cc(C)c2nc(-c3ccccn3)cc(C(=O)Nc3ccc(S(=O)(=O)Nc4onc(C)c4C)cc3)c2c1,"inconclusive: 25.1 µM [cytotoxic, partial curve]",
CCOC(=O)c1ccc(NC(=O)CSc2nc(-c3ccc(F)cc3)cc(C(F)(F)F)c2C#N)cc1,"inconclusive: 7.94 µM [cytotoxic, full curve]",
O=C(O[C@@H]1Cc2c(O)cc(O)cc2OC1c1ccc(O)c(O)c1)c1cc(O)c(O)c(O)c1 (stereo not given in full),"inconclusive: 28.2 µM [cytotoxic, partial curve, poor fit]",
Cc1c(Cl)cccc1NS(=O)(=O)c1ccc(NS(=O)(=O)c2ccc3c(c2)OCCO3)cc1,active: 31.6 µM,
C=C1CCC2C(C)(C)CCC[C@]2(C)[C@H]1CC/C(C)=C/C(=O)O (stereo not given in full),"inconclusive: 31.6 µM [cytotoxic, partial curve, poor fit]",
N#Cc1c(O)c2c(-c3ccc(-c4ccccc4O)cc3)csc2[nH]c1=O,,inactive: -14.6%
O=C(OCc1cc(=O)n2nc(C3CC3)sc2n1)c1ccc(NC(=O)c2ccccc2F)cc1,"inconclusive: 35.5 µM [cytotoxic, partial curve]",
O=C(Nc1cccc(C(=O)OCc2cc(=O)n3nc(C4CC4)sc3n2)c1)c1ccc(F)cc1,,inactive: -8.64%
CCCC[C@@]1(C2CCCC2)Cc2cc(OCC(=O)O)c(Cl)c(Cl)c2C1=O,"inconclusive: 35.5 µM [cytotoxic, partial curve]",
CCOc1c2c(c(OCC)c3ccccc13)C(=O)N(c1ccc(CC(=O)NS(=O)(=O)c3ccccc3)cc1)C2,"inconclusive: 25.1 µM [cytotoxic, partial curve]",
CC(C)c1ccc(NC(=O)c2ccc3c(O)c(S(=O)(=O)c4ccccc4)c(=O)[nH]c3c2)cc1,"inconclusive: 35.5 µM [cytotoxic, partial curve, poor fit]",
CCOC(=O)c1cccc(NC(=O)CSc2ncc3c(n2)-c2ccc(Cl)cc2N(Cc2ccccc2)S3(=O)=O)c1,,inactive: -13.5%
Cc1ccc(-n2[nH]c(C)c(N=Nc3cccc(-c4cccc(C(=O)O)c4)c3O)c2=O)cc1C,active: 14.1 µM,

# Rewritten bar-delimited: part of the list above
Structure (SMILES) | Potency | activity change, negative = cell loss
O=c1[nH]c(=S)[nH]c(-c2ccccc2)c1Cc1c(O)ccc2ccccc12 | inconclusive: 28.2 µM [cytotoxic, partial curve, poor fit] | 
CC1(C)C(\C=C/C=C\C=C/C=C2/N(CCCCS(=O)(=O)O)c3ccc4ccccc4c3C2(C)C)=[N+](CCCCS(=O)(=O)[O-])c2ccc3ccccc3c21 | inconclusive: 11.2 µM [cytotoxic, full curve, poor fit] | 
Cc1ccc(-n2[nH]c(C)c(N=Nc3cccc(-c4cccc(C(=O)O)c4)c3O)c2=O)cc1C | active: 14.1 µM | 

# Later entries.

Structure (SMILES),Potency,"activity change, negative = cell loss"
Clc1ccc(-c2nn3c(COc4cccc(OCc5nnc6sc(-c7ccc(Cl)cc7)nn56)c4)nnc3s2)cc1,"inconclusive: 15.8 µM [cytotoxic, partial curve, poor fit]",
Nc1c(N=Nc2ccc([N+](=O)[O-])cc2)c(S(=O)(=O)O)cc2cc(S(=O)(=O)O)c(/C=C/c3ccccc3)c(O)c12,,inactive: -17.4%
O=C(O)c1ccc(S(=O)(=O)N(Cc2ccc(OC(F)(F)F)cc2)c2ncc(C(F)(F)F)cc2Cl)cc1,active: 25.1 µM,
O=C1c2ccc(O)c(O)c2C(=O)c2c(O)ccc(O)c21,"inconclusive: 10 µM [cytotoxic, full curve]",
O=C(O)Cc1ccc2oc(-c3ccc(NC(=O)/C=C/c4ccc(Br)cc4)c(F)c3)nc2c1,"inconclusive: 12.6 µM [cytotoxic, full curve]",
CN(C)[C@@H]1C(=O)C(C(=O)NCN2CCCC2)=C(O)[C@@]2(O)C(=O)C3=C(O)c4c(O)cccc4[C@@](C)(O)C3C[C@@H]12 (stereo not given in full),,inactive: -14.8%
CCOc1ccc(C(=O)Nc2cccc(C(=O)OCc3cc(=O)n4nc(C5CC5)sc4n3)c2)cc1,active: 11.2 µM,
Clc1nc2n[nH]nc2nc1Cl,"inconclusive: 35.5 µM [cytotoxic, partial curve, poor fit]",
CCOc1nc2cccc(C(=O)OC(C)OC(=O)OC3CCCCC3)c2n1Cc1ccc(-c2ccccc2-c2nn[nH]n2)cc1 (stereo not given),active: 15.8 µM,
O=C(Nc1cccc(C(=O)OCc2cc(=O)n3nc(C4CC4)sc3n2)c1)c1cccc(F)c1,,inactive: -10.7%
Cc1oc2c(cc(NS(=O)(=O)c3ccc(C(C)C)cc3)c3ccccc32)c1C(=O)OCc1ccccc1,"inconclusive: 7.94 µM [cytotoxic, full curve, poor fit]",
CC1=C(C(=O)OCc2ccccc2)C(c2ccc(-c3ccccc3)cc2)NC(=O)N1CCCCCC(=O)O (stereo not given),"inconclusive: 4.47 µM [cytotoxic, full curve, poor fit]",
Cc1cc(C(C#N)c2ccc(Cl)cc2)c(Cl)cc1NC(=O)c1cc(I)cc(I)c1O (stereo not given),active: 8.91 µM,
CCOC(=O)Cn1cccc1-c1nc(-c2ccc(OC)cc2)c(-c2ccc(OC)cc2)s1,"inconclusive: 1.26 µM [cytotoxic, full curve, poor fit]",
CC(C)(C)c1ccc(S(=O)(=O)c2cnc(SCC(=O)Nc3ccc4c(c3)OCCO4)[nH]c2=O)cc1,"inconclusive: 15.8 µM [cytotoxic, full curve]",
O=c1cc(-c2ccc(O)c(O)c2)oc2cc(O)cc(O)c12,"inconclusive: 35.5 µM [cytotoxic, single point]",
CCc1nnc(NS(=O)(=O)c2ccc(NC(=S)NC(=O)/C=C/c3ccc(F)cc3)cc2)s1,"inconclusive: 15.8 µM [cytotoxic, partial curve]",
COc1cc(C2Nc3ccccc3-c3nnc(SCc4ccc(Cl)cc4)nc3O2)ccc1OCC(=O)O (stereo not given),,inactive: -19.4%
Cc1c(C2(c3cc(C(C)C)c(O)c(Br)c3C)OS(=O)(=O)c3ccccc32)cc(C(C)C)c(O)c1Br,,inactive: -11.2%
CC(=O)Nc1ccc(S(=O)(=O)O)c2cc(S(=O)(=O)O)c(N=Nc3ccc(N=Nc4ccc(S(=O)(=O)O)cc4)c4ccc(S(=O)(=O)O)cc34)c(O)c12,,inactive: -5.95%
